This passage reports binding results from article PMC10252828.

The assay addresses T1, PSMA4-GFP (20S proteasomal subunit PSMA4 with GFP fused C-terminally) (D. discoideum) (UniProt P34119).
T1 sequence: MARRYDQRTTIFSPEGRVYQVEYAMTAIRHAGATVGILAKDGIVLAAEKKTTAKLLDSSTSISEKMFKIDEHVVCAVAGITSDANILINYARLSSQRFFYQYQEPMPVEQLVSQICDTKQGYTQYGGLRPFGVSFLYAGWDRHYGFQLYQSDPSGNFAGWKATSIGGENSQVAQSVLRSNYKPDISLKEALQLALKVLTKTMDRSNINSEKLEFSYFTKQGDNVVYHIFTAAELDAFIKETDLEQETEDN
Kind of assay: affinity purification with mass spectrometry; GFP-trap beads, 2 h at 4 °C, with the soluble supernatant of lysates of AX2 and ATG16- cells expressing RFP-PSMD1 and PSMA4-GFP; cells without PSMA4-GFP as negative controls; three biological replicates; label-free quantification; GlyGly (K) and ubiquitination as variable modifications.

These are yes or no findings as the source states them, for the method shown. Binding seen in cells or lysates may run through a third protein. Here binding means that the protein was enriched with, or labelled near, the bait; the list need not be complete. Tags and fused reporters may be left off the sequences shown.

B1: Uncharacterized protein Q54WT5 (DDB_G0279449), ubiquitinated at K115 (protein, UniProt Q54WT5 1-1100)
chain: MTKGGKKPTAHKKVVSTFTIQEPEEFKDNTRELKAEAERVRQEGFRKIKEEKLQKEQALIREKQEAEAKKKLEEQEKLEQEQKKKQQEEEDKKRKQQEEEDKIKQQQLKKEEKEKEKAAAANPKSSKLDNKKEVEESKVVEISTQPTTTTTTTTNQVNNNSNNNNNNDISSPSTQLKKQNGKKVVKRKHSTQLSGFEISEPSSFDDEQFKIDNEDVIRLRTKFIKVTKPKKNKKNASKSGSPAIISSNTTSESVTPQNFAQENSPPTTTPATTQTQVTEKPKQQEEEKEEGEKEEPKPVVPEIKKIGIKSSPKAEQKPHYTIPKKNKQQQQPPKPTTNEAKPAGETKKSTGKKSPKQSITKNKSATFTIIEPSFGIQAPSSNTTTATPVEDSSSKTVDSTTTTTTTTSTATKTPAKPTPTQSKKKQNKKKPSTTNKSDDDIEGLLKQINDPKQRKVKQPTTTATPVVSKEDEAKKQKAAQESAEKKKLTDQNKKEAQEQEKLRVAEAKKVADAKKAADAEESKKAADAKKAADAEAKKAAEAKKAADAEAKKAADAKKAAADEEEAKKAADAKKAADAKKAADEEEAKKAADAKKVADAEAKKAADAKKAADEEEAKKAADAKKAAEEEEAKKAADIKKAAEDAKKAEDAKKAEDAKKAEEDRLEAEAEKKRLAEEQAKKEADAKKAEEDRLAAEAEKKRLEGEQAKRAEEDRLAAEAEKKRLADEAEKKRLADEAEKKEAEGKKAEEDRLAAEAEKKRLADEEAEKKAAESKKLAEEEEKKAVEAKRLADEEEEKRAAESKKLADEEQAKKAAQEEEEKKKLEEEEEKKKAASEQAEQKQVAEDSDKKKADEAEIRPLSHPTLSRPSKKSSSSLKLNRVETESEVEASKSEETKEEEKPEPEEEKPKVEYKPDFKPVGGIDIFGGAKINPAEVVLKKTTSSSNIIEHTPAPAPEEQGTFNFRSVLKNSKSSEKLSEFANGGSTTSSTTTTPSTGTPVKPTLSKSPSVVNNKSTTSIPIPTSSPVISPAAVTSMPSEAVGTYTYDELKNFKTNGINVDPSKLEIYLSDEEFTKVLGMSRTEYIKLPAWKQKNKKQDAKLF
modifications: ubiquitinated lysine at 115
Consider B1, for which the binding result was “binds”.

B2: Uncharacterized protein Q54GX0 (DDB_G0289871), ubiquitinated at K2 (protein, UniProt Q54GX0 1-332)
chain: MKFFSFLSIGRATNVQSVMNTLTNENNKSFDLKSIDSFSLVDLSNQFISIKERIKFSKKELGDLLLFNKNVDGIIVAKNISLEKFDNIRNMFDDIPKVMLINGFVIITDLSVSKIHAFGLSYFLVQVGAYSLTSNYSLVGLNELSIAIPGNGFVQPDSCLLPKGRAQPNVDIPTVAFEMYYSKGVSYAVARARILFRISGIQYVLCICIRPRDPNNNNTFKCTALVFNGVISRENPVSIISFGTKPISQINENQYQTITVGVPAVGYKRTNPVQCNAPNLPMFLISIPSTIIFNGVPNPPANIPPALNLDLFILQSSFLEYVEDFTGNLHHQ
modifications: ubiquitinated lysine at 2
For the molecule B2, the binding result is “binds”.
